Patent publication US20090155251A1 (published 2009)
No constants are given. Whether binding was seen depends on the method and setting. Some results given as binding are weak or reduced against the parent protein; the word gives no strength. Where a sequence is shown, tags or fusion partners need not be part of it. Values belong to the molecule of their own block, whether it stands above or below them.

Amino acid sequences for entries named in this document (tags omitted). A change or cut given only in a name is not applied to a line headed by its entry. Residues count along the entry.
UniProt P52799: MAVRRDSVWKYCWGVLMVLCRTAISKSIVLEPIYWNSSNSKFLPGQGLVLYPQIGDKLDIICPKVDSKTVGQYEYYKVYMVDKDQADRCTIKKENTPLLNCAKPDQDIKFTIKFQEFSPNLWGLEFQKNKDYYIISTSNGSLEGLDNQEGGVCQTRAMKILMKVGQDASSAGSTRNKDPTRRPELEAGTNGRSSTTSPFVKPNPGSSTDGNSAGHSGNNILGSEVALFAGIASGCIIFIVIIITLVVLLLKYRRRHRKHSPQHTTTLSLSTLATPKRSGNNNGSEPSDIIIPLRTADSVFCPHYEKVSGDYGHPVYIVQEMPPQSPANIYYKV
ephrin B2 on tumor cells of human Kaposi's sarcoma biopsy sections: residues 28-333 of P52799

Key:
[1] = target: T1, B4EC-AP reagent (protein fusion of EphB4 ectodomain with placental alkaline phosphatase) (UniProt P54760); assay: biochemical assays: Protein A-agarose and nitrocellulose binding assay as for B4EC-FC (FIG. 8); AP probe not named
T1 sequence (looked up): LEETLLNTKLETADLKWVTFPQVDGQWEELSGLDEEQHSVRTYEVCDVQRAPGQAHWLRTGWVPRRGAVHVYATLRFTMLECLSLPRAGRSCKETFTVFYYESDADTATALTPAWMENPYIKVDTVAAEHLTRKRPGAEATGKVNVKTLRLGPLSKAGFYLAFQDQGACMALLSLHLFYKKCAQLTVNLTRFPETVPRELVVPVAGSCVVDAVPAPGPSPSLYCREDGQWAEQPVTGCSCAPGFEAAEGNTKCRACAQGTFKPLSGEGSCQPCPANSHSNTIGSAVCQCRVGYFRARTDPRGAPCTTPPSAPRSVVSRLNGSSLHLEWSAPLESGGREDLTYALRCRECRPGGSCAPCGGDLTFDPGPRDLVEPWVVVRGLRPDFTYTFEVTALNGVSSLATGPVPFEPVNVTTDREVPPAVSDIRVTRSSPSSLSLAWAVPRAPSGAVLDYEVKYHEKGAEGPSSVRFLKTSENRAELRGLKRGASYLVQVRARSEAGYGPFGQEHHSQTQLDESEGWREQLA

[2] = target: ephrin B2 on tumor cells of human Kaposi's sarcoma biopsy sections (human) (UniProt P52799); assay: AP fusion staining of KS biopsy section

- binding [1]: binds
Molecule: B2EC-FC (Ephrin B2 extracellular domain fused to human IgG1 Fc) (from UniProt P52799 28-229) (Fc fusion)

- binding [2]: binds
B1: B4EC-AP reagent (protein fusion of EphB4 ectodomain with placental alkaline phosphatase) (receptor, UniProt P54760 16-539, looked up, not shown: large carriers)
chain: T1 sequence (looked up)
